Consider 108 sequences from PubChem BioAssay AID1347426 (Functional Genomics Laboratory (NCATS/FGL), 2020).

Among all 31,000 sequences or so, about 1,400 (4.5%) were called active.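 Rule for the calls: active = median seed-adjusted z-score above 1 or below -1; inactive = the rest.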 Some of the results follow.

This experiment can be described thus: Novel Modifiers of Survival Motor Neuron (SMN) Protein: Gene Identification via Genome-wide siRNA Screen.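 Note: luminescence tracks full-length SMN protein made from the SMN2 reporter.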 The settings on record: HEK293T SMN2-luciferase reporter, siRNA knockdown, 72 h; actives lie on both sides. In outline: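 Luciferase signal, proportional to full-length SMN made from an SMN2 cDNA reporter in stable HEK293T cells, was read 72 h after siRNA reverse transfection. Values were expressed as MAD scores after non-targeting-control normalization and log10 conversion; seed analysis flagged off-targets.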
For the sequence GAGAGAAUCAUUACGAAAATT against MTMR2, the median seed-adjusted z-score is inactive: 0.495.

As to CCUCAACACCUUACACUAATT against SMARCC2, the median seed-adjusted z-score was inactive: 0.0684.

Take GCUGGGACCUAACAGGAUATT against ATP10B: the median seed-adjusted z-score is inactive: 0.51.

In the case of CAGAGGCAGUGAUAGAACATT against BHMT2, the median seed-adjusted z-score is inactive: -0.0704.

GAACAAGUAGAGAAGAACATT against CLTB: the median seed-adjusted z-score is inactive: 0.319.

In the case of CCAGGAACCCGUCUCUCAATT against ATP5G1, the median seed-adjusted z-score was inactive: -0.311.

Take GCGAUGCGGAAGAAGCUAATT against NCOR2: the median seed-adjusted z-score was inactive: -0.305.

As to UCAUAGCAAAGAGAAGAUATT against HAVCR2, the median seed-adjusted z-score is inactive: 0.205.

As for CGAUAGACAGUAGACGAAUTT against RB1CC1, the median seed-adjusted z-score was inactive: 0.0878.

Regarding CUCCCAUGAUGGCAUCUUATT against HSPB2, the median seed-adjusted z-score is inactive: 0.247.

Take GGGUAAGCCCUUUAAAGGATT against ZNF594: the median seed-adjusted z-score is inactive: 0.491.

For the sequence GACUCCCAUUUGAGACUUUTT against ZMAT1, the median seed-adjusted z-score is inactive: -0.123.

Turning to GUAUGAAAUUGAAACGGAUTT against KCNC2, the median seed-adjusted z-score was inactive: 0.3.

For CAAGCAGUUUCAUUUCAAATT against PCBD1, the median seed-adjusted z-score is inactive: 0.

Take GUAAUUCCAUAUAAUCCUUTT against PRKCI: the median seed-adjusted z-score is inactive: 0.386.

On to CUGUUCUGCUUAUAUGGAATT against HNRPLL, for which the median seed-adjusted z-score is inactive: 0.

In the case of CGAUGUUGCUCUCCAUGGATT against RRN3, the median seed-adjusted z-score was inactive: 0.0382.

With CCAUUACAGAACAAUGAGATT against ABCD3, the median seed-adjusted z-score is inactive: -0.24.

As to UAGCUUCGGUGAUCAAGAATT against ANXA9, the median seed-adjusted z-score is inactive: 0.055.

Turning to GGAAGAUCAUGUUCGAAUATT against RGL1, the median seed-adjusted z-score was inactive: 0.0217.

Turning to GGUGUGCAUUGAUGCGGAATT against DNMT1, the median seed-adjusted z-score is inactive: 0.185.

Take GCACUGGACCAAUACAAGUTT against GPR84: the median seed-adjusted z-score was inactive: 0.285.

For the sequence AGUCAAUUCCUAUUGGUUUTT against HINT3, the median seed-adjusted z-score was inactive: 0.

For the sequence GGGUCAUGUUUGGUUAGAATT against IMMP1L, the median seed-adjusted z-score is inactive: -0.444.

With CAGCAAGUCUCGAAGUAAUTT against LCLAT1, the median seed-adjusted z-score is inactive: 0.

For CCUUUAACGUGGACAUGUATT against GPS1, the median seed-adjusted z-score was inactive: 0.205.

For GGCUUGACCAUAAAGAACATT against IGF2BP2, the median seed-adjusted z-score is inactive: 0.281.

For GCUACAUACCUUCAUUUUATT against SLC22A9, the median seed-adjusted z-score was inactive: -0.778.

For CAAUGGAACAAUCAAAGUUTT against RAB31, the median seed-adjusted z-score was inactive: 0.41.

Turning to GCCCUACGUUAACAACAAATT against SERPINB11, the median seed-adjusted z-score is inactive: 0.

Regarding GGACAUCUGGGUGAAGUUUTT against SNRPF, the median seed-adjusted z-score is active: -2.66.

Take GCUUCGGCCUUGUAUCAUUTT against CCNE1: the median seed-adjusted z-score is inactive: -0.693.

Take CACCAGGUCUACAACCUAATT against FEZF2: the median seed-adjusted z-score was inactive: 0.203.

Regarding GUAUCCCACUGUCCUAUAATT against SORL1, the median seed-adjusted z-score is inactive: 0.357.

CUCCCUCACCAAAACAAAATT against DUSP26: the median seed-adjusted z-score is inactive: 0.204.

Consider CGGACAAUUUUAACCCUGUTT against M6PR, for which the median seed-adjusted z-score is inactive: -0.879.

For CCUUAAGAGGGAUGAUAAATT against SAFB, the median seed-adjusted z-score is inactive: -0.954.

Take CGAUUUGUAUAGGAAGCAATT against NKX2-8: the median seed-adjusted z-score is inactive: 0.104.

With UCAUUGUCGUGAAUGCUGUTT against CHRNG, the median seed-adjusted z-score was inactive: 0.221.

As for CUGUUUCCCUGAUCUGGCATT against ETV2, the median seed-adjusted z-score is inactive: 0.

With CGAUCACCGUCACAGACUUTT against PCDHB14, the median seed-adjusted z-score was inactive: -0.229.

As to CCAAGAACCUGAACUAUGATT against ALDH16A1, the median seed-adjusted z-score was inactive: 0.42.

Regarding GAAUCAUGUUCGUUCAGGATT against NISCH, the median seed-adjusted z-score is inactive: -0.0757.

With CGAAUAACCUUGAUUGACATT against TRPM6, the median seed-adjusted z-score was inactive: -0.0375.

In the case of CUAUCAGGGAAAUUACGUATT against ZNF713, the median seed-adjusted z-score was inactive: -0.0652.

As to GCUGUUACCUGUUUGAAAATT against ATM, the median seed-adjusted z-score is inactive: 0.22.

For the sequence GAGGUUGACUUUCCAAUGATT against LCMT1, the median seed-adjusted z-score was inactive: 0.821.

Take ACCGCAACUUUUGAGCUAATT against LCN12: the median seed-adjusted z-score was inactive: 0.124.

Take GCUUCAAGCAGAACGUAAATT against SFRS8: the median seed-adjusted z-score was inactive: -0.353.

As to ACAUGUUUGAGAACGGCAATT against FOXL1, the median seed-adjusted z-score was inactive: -0.448.

Regarding CCGCCUCUUUGACUGGAUATT against MYO1A, the median seed-adjusted z-score is inactive: -0.0501.

As to AGUUUUUGCAGAACAAGGATT against SPIRE2, the median seed-adjusted z-score was inactive: 0.0604.

Take CAUCAGACAUUAUAUUGGUTT against EIF1AY: the median seed-adjusted z-score was inactive: 0.00168.

On to CGCCUUCGGUGGAAGUUAUTT against DPP7, for which the median seed-adjusted z-score was inactive: -0.217.

Regarding CACCUUUAGUGAAGUAGAATT against CD46, the median seed-adjusted z-score was inactive: -0.0278.

With GAAUUAAAGAUUUGGUUGATT against EFCAB1, the median seed-adjusted z-score was inactive: -0.719.

Consider GGCUGUUAGGAGUAAAUCATT against ENPP3, for which the median seed-adjusted z-score is inactive: 0.66.

In the case of GAAUUGACGAUGGUGCAAATT against NTRK2, the median seed-adjusted z-score was inactive: 0.103.

With GCUGAUCGGGAACAAGUCATT against RAB43, the median seed-adjusted z-score was inactive: -0.0845.

As for CCAUCAAACUUGCAUCCCUTT against ISX, the median seed-adjusted z-score is active: 1.99.

Regarding GUAUACCAGGUAAAAAUAATT against RHOXF1, the median seed-adjusted z-score is inactive: 0.341.

In the case of GUAUGGACACCAUUAGUAATT against DTX3L, the median seed-adjusted z-score was inactive: 0.0785.

On to AGUGAGUUACAAGACCUAATT against SLC22A5, for which the median seed-adjusted z-score was inactive: 0.349.

Turning to GUUUAGAUCAUGCACCAUATT against LONRF1, the median seed-adjusted z-score was inactive: 0.743.

GCGGCUUCCCUUCUAGUAATT against DNAJB12: the median seed-adjusted z-score is inactive: 0.

As to CCAAUAUGACUAACCAGAATT against HDAC1, the median seed-adjusted z-score was inactive: -0.61.

As for GGACAGAUAUCAUCAACGATT against LDLR, the median seed-adjusted z-score was inactive: -0.142.

Consider CACCAUCUCCGGGAACAGATT against FUT1, for which the median seed-adjusted z-score was inactive: 0.000845.

Regarding GGCCCAUGGAGUUUCUGAATT against UTP14A, the median seed-adjusted z-score was inactive: -0.366.

Consider CAGUCGACCAGUACAUCAATT against PMS1, for which the median seed-adjusted z-score was inactive: 0.0538.

With CAAUAGGUUCAGCUCCAAATT against CLCNKB, the median seed-adjusted z-score was inactive: 0.428.

For GACUGGUUAUUACGUCUUATT against SYNJ1, the median seed-adjusted z-score is inactive: 0.

With CAAUGGACUAUAGAGUUAATT against GLRB, the median seed-adjusted z-score was inactive: 0.0713.

On to GGCCUAGGCUUCAACAUCATT against LIN7B, for which the median seed-adjusted z-score is inactive: 0.236.

GGAUUUUGUCAGUCUAGAATT against OSR2: the median seed-adjusted z-score is inactive: 0.603.

Turning to GGACUACAGUGAACAUUGUTT against PSMD14, the median seed-adjusted z-score was inactive: 0.375.

For the sequence CCAGUUCAAUGAGACCUUUTT against COX4I2, the median seed-adjusted z-score is inactive: -0.0202.

As to AGUGUUUGCUUGCGACUUATT against B3GALT6, the median seed-adjusted z-score is inactive: 0.169.

In the case of CCUACAAUGCGGACAUCGATT against LOXL1, the median seed-adjusted z-score is inactive: 0.0435.

Turning to CAUCCUCUUUAACCCAGUUTT against RANBP3, the median seed-adjusted z-score is inactive: -0.211.

For CCAUCAACGUGAACCAUUATT against NINJ1, the median seed-adjusted z-score is inactive: -0.061.

Take GGAAGAACCGCUACAAAGATT against PTPN18: the median seed-adjusted z-score is inactive: -0.206.

With GCAUAUCAUGGAGCAUCUATT against MCFD2, the median seed-adjusted z-score is inactive: -0.0111.

On to AAACCUACUGGACCCGUGATT against CRABP1, for which the median seed-adjusted z-score was inactive: -0.625.

With CAAGCAAUACAAGUACUAATT against MEIS2, the median seed-adjusted z-score is inactive: 0.475.

Take CGCUGAAUCCUUCAAGGAATT against OPHN1: the median seed-adjusted z-score is inactive: 0.692.

Take AAGACAGAAUUGUGGUUUUTT against TFF1: the median seed-adjusted z-score is inactive: -0.469.

As for UCCUUACCGUGGGCACUGATT against HMOX1, the median seed-adjusted z-score is inactive: 0.45.

On to AGCUGCUUCUGUUCAAUAATT against AMIGO3, for which the median seed-adjusted z-score is inactive: 0.752.

CAGUGGAUCUCAACAAGAUTT against KRT36: the median seed-adjusted z-score is inactive: 0.766.

As to CAAUCCGAACAACAACGUATT against RFX3, the median seed-adjusted z-score is inactive: 0.17.

Consider GGAAGAACCUAUAGCCUAUTT against PTPRO, for which the median seed-adjusted z-score is inactive: 0.387.

Take GUCCUUCCGUAAAAAGUAUTT against PEBP1: the median seed-adjusted z-score is inactive: 0.641.

As to CCAACUAUGUGGUAGCCUUTT against SLC22A4, the median seed-adjusted z-score was inactive: -0.474.

Consider CCAACAACAUUACGAAAUUTT against SLC22A3, for which the median seed-adjusted z-score was inactive: 0.126.

With GACCUUCAGUUGGAGCUGATT against ID1, the median seed-adjusted z-score is inactive: 0.

Regarding GAUGUUCAGUAUAUCUAUATT against TIMP4, the median seed-adjusted z-score is inactive: -0.112.

On to GACCUAUCCUUGCACCAGATT against ECT2, for which the median seed-adjusted z-score was inactive: 0.04.

Consider UGGGAAUUUUGAUUACAUUTT against MS4A5, for which the median seed-adjusted z-score was inactive: 0.226.

With GGCUCGCAGUAUGAACUGATT against IRX1, the median seed-adjusted z-score was inactive: 0.673.

Take GGGUCUUCCCUCAAAGUAATT against SIRT1: the median seed-adjusted z-score is inactive: 0.

In the case of CCACAGACCCAACCAGUUATT against OAT, the median seed-adjusted z-score was inactive: -0.0231.

As to CAGAAGUUCUCAGACCUAATT against ZNF721, the median seed-adjusted z-score was inactive: 0.404.

Consider GGAUAAACCUAUGCAUACATT against CCNF, for which the median seed-adjusted z-score is inactive: -0.435.

Regarding CAUAAGGAGAGAGAUCUUATT against THRAP3, the median seed-adjusted z-score was inactive: -0.852.

Regarding CAAUCGACCCUCCAAGAUATT against DDX19A, the median seed-adjusted z-score is inactive: 0.183.

On to GAGAACAUGUUGUUCCGCUTT against SSPO, for which the median seed-adjusted z-score is inactive: 0.397.

For the sequence GGCUAACUCGAUUUAAGCATT against TIGD2, the median seed-adjusted z-score is inactive: -0.13.
